Results published in patent US20130189764A1, “SELECTIVE GROWTH MEDIA” (Oxide Limited, priority 2000, published 2013).
For at least one compound, name, drawing or mass did not settle the structure.

What was measured:
Assay in all cases: MIC on DMSal agar (Example 15)
Assay type in all cases: cell-based
Design in all cases: unit not given beside the values
Group C Streptococcus = conditions: 7 strains
Bacillus cereus = conditions: 2 strains
Enterococcus faecalis = conditions: 6 strains
Vibrio = conditions: 8 strains
Group G Streptococcus = conditions: 8 strains
Listeria monocytogenes = conditions: 4 strains

CC(NC(=O)C(N)Cc1c[nH]c2ccccc12)P(=O)(O)O (stereo not drawn) [Trp-AEP, tryptophan-AEP]
MIC (Group C Streptococcus): 256 >256 | MIC (Bacillus cereus): 32−>256 | MIC (Enterococcus faecalis): 8−>256 | MIC (Vibrio): 256−>256 | MIC (Group G Streptococcus): 8−>256 | MIC (Listeria monocytogenes): 64−>128
